PubChem BioAssay AID1159584, Peter MacCallum Cancer Centre | 2016
Screen: 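Genes whose loss is lethal only together with E-cadherin loss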 (primary screen). Cells: human MCF10A breast epithelial cells, parental and CDH1-null. Reagent: siRNA against human genes. Read-out: 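Cell viability by CellTiter-Glo ATP luminescence, each line scaled to the mean of mock wells across plates, then CDH1-null over parental ratio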. Reading the numbers: CDH1-null / parental viability ratio: higher = CDH1-null cells survive relatively better than parental; CDH1-null viability vs mock: higher = more viable CDH1-null cells.
Here is one part, drawn at random, of about 18,000 reagents. Not all columns of the deposit are shown. The record does not give: the amount of reagent, the time to read-out.

gene | CDH1-null / parental viability ratio | CDH1-null viability vs mock (fraction of mock)
CNGB1 | 1.33 | 1.05
SLC2A9 | 1.19 | 1.08
SRPX | 0.93 | 0.7
TXN2 | 0.89 | 0.66
MRPS24 | 1.38 | 0.99
OR6B1 | 0.73 | 0.32
PCDHA4 | 1.01 | 0.87
CALM2 | 0.78 | 0.77
DNTT | 0.95 | 0.7
WIPI1 | 1.42 | 0.68
GPR19 | 0.81 | 0.68
OR10H5 | 1.1 | 1.08
ATG2A | 1.32 | 1.19
KCNK13 | 1.33 | 0.88
CRIM1 | 1.04 | 0.85
ZDHHC9 | 0.99 | 0.76
RFESD | 1.07 | 0.78
BFAR | 0.81 | 0.5
GTF2A2 | 0.94 | 1
CLCF1 | 1 | 0.78
FGG | 0.9 | 0.82
MYH3 | 1.15 | 0.82
TACR3 | 0.98 | 0.82
ZNF12 | 1.03 | 0.76
LHX9 | 1.12 | 0.74
STAC3 | 1.08 | 0.8
KRTAP3-1 | 1.67 | 0.72

4 entries already listed, arranged by “CDH1-null viability vs mock (fraction of mock)”, highest first.
gene | CDH1-null / parental viability ratio | CDH1-null viability vs mock (fraction of mock)
ATG2A | 1.32 | 1.19
OR10H5 | 1.1 | 1.08
KCNK13 | 1.33 | 0.88
GPR19 | 0.81 | 0.68

The list goes on:
gene | CDH1-null / parental viability ratio | CDH1-null viability vs mock (fraction of mock)
EIF3B | 1.24 | 0.52
CIROZ | 1.05 | 0.65
BORA | 1.01 | 0.76
BCL10 | 1.02 | 0.98
CNOT9 | 1.01 | 0.76
CERS6 | 1.15 | 1.06
CCR9 | 0.82 | 0.62
PTMA | 0.84 | 0.32
OPN3 | 1.33 | 0.88
GLDN | 0.87 | 0.7
ZNF341 | 1.02 | 0.86
TNFRSF6B | 1.3 | 1.07
OTOA | 1.03 | 0.7
LY75 | 0.83 | 0.71
JAKMIP2 | 1.09 | 0.85
TCAF1 | 0.68 | 0.34
PATZ1 | 1.05 | 0.45
KLHL27 | 1.05 | 0.8
KHDC1 | 0.9 | 0.81
